Assay results published in patent US20100311639A1.
These are yes or no findings as the source states them, for the method shown. Binding seen in cells or lysates may run through a third protein. Some results given as binding are weak or reduced against the parent protein; the word gives no strength.

By UniProt entry, the sequences of proteins in these tests, tags left out.
UniProt Q9ESQ5: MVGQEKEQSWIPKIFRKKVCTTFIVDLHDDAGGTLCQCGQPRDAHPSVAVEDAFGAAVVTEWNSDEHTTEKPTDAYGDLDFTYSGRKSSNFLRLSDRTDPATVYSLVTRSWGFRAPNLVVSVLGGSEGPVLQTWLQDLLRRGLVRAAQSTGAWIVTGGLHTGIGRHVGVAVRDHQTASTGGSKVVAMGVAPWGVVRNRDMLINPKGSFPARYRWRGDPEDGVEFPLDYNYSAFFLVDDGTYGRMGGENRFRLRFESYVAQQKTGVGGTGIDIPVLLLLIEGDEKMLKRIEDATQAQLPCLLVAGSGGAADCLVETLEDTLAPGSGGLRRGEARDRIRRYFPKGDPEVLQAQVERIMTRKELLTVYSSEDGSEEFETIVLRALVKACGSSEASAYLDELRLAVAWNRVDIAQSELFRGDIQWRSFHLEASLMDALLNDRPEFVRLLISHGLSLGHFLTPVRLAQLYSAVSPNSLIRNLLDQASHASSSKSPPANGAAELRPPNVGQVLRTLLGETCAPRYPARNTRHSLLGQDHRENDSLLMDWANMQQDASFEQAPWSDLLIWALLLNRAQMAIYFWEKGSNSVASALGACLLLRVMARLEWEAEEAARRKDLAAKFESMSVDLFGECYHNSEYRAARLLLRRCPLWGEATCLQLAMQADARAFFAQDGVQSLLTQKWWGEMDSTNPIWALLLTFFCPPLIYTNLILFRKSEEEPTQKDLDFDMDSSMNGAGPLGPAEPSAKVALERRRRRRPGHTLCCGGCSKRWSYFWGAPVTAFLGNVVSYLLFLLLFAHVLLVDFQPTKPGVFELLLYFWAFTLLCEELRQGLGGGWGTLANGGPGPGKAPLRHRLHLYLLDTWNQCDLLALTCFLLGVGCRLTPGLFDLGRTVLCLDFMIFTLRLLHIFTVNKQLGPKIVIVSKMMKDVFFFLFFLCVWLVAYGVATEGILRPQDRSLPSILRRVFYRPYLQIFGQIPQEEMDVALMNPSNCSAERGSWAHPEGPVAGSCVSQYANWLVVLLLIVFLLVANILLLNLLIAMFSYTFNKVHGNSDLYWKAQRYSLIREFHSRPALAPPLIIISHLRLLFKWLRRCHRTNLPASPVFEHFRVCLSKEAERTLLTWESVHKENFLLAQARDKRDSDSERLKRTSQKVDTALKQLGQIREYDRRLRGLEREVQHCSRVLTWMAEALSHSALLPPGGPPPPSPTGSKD
UniProt Q09429: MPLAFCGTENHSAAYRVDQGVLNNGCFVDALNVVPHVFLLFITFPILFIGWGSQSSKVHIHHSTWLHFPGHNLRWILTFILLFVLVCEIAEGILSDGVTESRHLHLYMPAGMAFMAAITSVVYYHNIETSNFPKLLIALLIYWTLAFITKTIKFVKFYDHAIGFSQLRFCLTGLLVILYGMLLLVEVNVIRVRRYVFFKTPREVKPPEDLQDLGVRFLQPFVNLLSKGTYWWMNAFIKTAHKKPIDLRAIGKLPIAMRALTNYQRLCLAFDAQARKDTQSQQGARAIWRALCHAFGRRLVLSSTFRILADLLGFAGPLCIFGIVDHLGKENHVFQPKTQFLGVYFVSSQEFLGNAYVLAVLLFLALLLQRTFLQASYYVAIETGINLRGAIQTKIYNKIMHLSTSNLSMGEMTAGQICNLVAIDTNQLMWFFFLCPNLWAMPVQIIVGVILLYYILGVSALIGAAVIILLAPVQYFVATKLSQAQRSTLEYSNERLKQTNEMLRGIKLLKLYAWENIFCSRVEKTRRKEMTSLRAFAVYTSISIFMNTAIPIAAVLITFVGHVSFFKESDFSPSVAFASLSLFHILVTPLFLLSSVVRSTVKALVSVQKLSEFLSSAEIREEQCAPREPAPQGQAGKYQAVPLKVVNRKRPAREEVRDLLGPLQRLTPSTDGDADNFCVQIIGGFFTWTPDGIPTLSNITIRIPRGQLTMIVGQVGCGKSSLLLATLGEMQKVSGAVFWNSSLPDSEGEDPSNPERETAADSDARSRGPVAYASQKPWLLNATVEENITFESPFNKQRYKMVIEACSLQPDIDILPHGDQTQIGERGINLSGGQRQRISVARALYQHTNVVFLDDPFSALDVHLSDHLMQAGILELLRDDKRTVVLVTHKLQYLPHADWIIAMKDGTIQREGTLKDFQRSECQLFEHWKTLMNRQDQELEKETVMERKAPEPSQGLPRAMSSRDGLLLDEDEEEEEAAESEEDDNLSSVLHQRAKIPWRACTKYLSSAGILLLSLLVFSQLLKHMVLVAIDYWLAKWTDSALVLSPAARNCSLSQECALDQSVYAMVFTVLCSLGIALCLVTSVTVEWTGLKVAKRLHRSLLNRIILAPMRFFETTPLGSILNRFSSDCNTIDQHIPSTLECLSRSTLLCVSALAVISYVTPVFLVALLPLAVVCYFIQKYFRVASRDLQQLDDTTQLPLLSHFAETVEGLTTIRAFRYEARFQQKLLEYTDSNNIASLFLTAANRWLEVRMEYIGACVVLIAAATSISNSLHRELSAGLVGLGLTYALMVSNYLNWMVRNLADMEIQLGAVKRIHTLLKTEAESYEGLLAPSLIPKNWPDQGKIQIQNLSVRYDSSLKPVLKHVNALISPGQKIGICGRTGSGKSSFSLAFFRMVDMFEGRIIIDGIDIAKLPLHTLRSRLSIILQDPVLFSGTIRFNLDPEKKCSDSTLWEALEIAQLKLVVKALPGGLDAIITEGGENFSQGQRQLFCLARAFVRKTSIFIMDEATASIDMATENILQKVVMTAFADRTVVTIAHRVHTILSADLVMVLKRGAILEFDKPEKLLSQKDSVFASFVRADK

Columns and labels:
[1] = target: transient receptor potential M4 (TRPM4), endogenous, in lysate of injured tissue (rat) (UniProt Q9ESQ5); experiment: co-immunoprecipitation with SUR1 antibody, Western blot for TRPM4 (figure legend)
[2] = target: transient receptor potential M4 (TRPM4), endogenous, in lysate of injured tissue (rat) (UniProt Q9ESQ5); experiment: co-immunoprecipitation from injured-tissue lysate with anti-SUR1 antibody, Western blot for TRPM4

Substance: sulfonylurea receptor 1 (SUR1), endogenous, in lysate of injured tissue (from UniProt Q09429 1-1582)
- binding [1]: binds
- binding [2]: binds
